The exact form of at least one protein or probe is not confirmed. For part of these data: Whether high values mean tight binding is not given here for every scale. For part of these data: Protein sequences can lack the tags named with them.
Columns and labels:
apo-YgaV (His-tagged) [1] = target: apo-YgaV (His-tagged) (UniProt P77295); assay: DNase I footprinting; details: 1 mM DTT, Mg2+, Ca2+, footprint: 100 nM DNA, 12.5 mM HEPES/NaOH pH 8.0, 5 mM K-acetate, 2.5 mM Mg-acetate, 1 mM CaCl2, 12.5 ug/mL BSA, 0.3 mg/mL heparin, ~22 C, recombinant protein, residues 1-99, protein details: N-terminal His (pColdI), probe letters rebuilt from the primers and the genome, part of a longer molecule
apo-YgaV (His-tagged) [2] = target: apo-YgaV (His-tagged) (UniProt P77295); assay: EMSA; details: EMSA: 50 nM probe, 25 mM Tris-HCl pH 8.0, 100 mM NaCl, 2 mM MgCl2, 6% glycerol, room temperature 30 min, recombinant protein, residues 1-99, protein details: N-terminal His (pColdI), probe letters rebuilt from the primers and the genome, part of a longer molecule
[3] = target: T1, heme-YgaV (His-tagged, hemin-reconstituted) (UniProt P77295); assay: EMSA; details: heme, 10 mM Na2S (oxidized); EMSA: 50 nM probe, 25 mM Tris-HCl pH 8.0, 100 mM NaCl, 2 mM MgCl2, 6% glycerol, room temperature 30 min; recombinant protein; residues 1-99; protein details: N-terminal His (pColdI); probe letters rebuilt from the primers and the genome; part of a longer molecule
T1 sequence (looked up): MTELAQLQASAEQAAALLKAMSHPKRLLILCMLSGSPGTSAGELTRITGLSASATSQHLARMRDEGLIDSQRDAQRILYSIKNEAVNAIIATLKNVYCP

| Sequence | binding result (apo-YgaV (His-tagged) [1]) | binding result (apo-YgaV (His-tagged) [2]; 1 mM DTT (reduced), EC50 only in figure) | binding signal (fold higher EC50 than DTT-reduced) (apo-YgaV (His-tagged) [2]; 10 mM Na2S (oxidized)) | binding signal (fold higher EC50 than DTT-reduced) [3] | binding signal (apo-YgaV (His-tagged) [2]; 1 mM DTT (reduced), scale: fold higher YgaV concentration for shift than ygaV promoter) |
| --- | --- | --- | --- | --- | --- |
| CGATTCTCCAGAAACCCATATGTACTCCCTATAAGAAAATTACTCATTGTTTAAAAAGAGATTTTATCTCTTAAGCGTAGTAATTTTAGCGGAGCCTGCCAGTTTCAGCTTACGCTTTTACTCTCATTTACGCTGCTGAGGCTGGTATATGTTGCATTTTTAGTTTAGAGTTTACTTAATTTAGAAAATACTTAAATAAATATGACTGAACTCGCGCAATTACAGGCCAGTGCCGAACAGG (double strand) [ygaVP promoter] | binds | binds | 5 | 5 | – |
| TAAATAGTGTGGCTTTTGTGAAAATCACACAGTGATCACAAATTTTAAACAGAGCACAAAATGCTGCCTCGAAATGAGGGCGGGAAAATAAGGTTATCAGCCTTGTTTTCTCCCTCATTACTTGAAGGATATGAAGCTAAAACCCTTTTTTATAAAGCATTTGTCCGAATTCGGACATAATCAAAAAAGCTTAATTAAGATCAATTTGATCTACATCTCTTTAACCAACAATATGTAAGATCTCAACTATCGCATCCGTGGATTAATTCAATTATAACTTCTCTCTAACGCTGTGTATCGTAACGGTAACACTGTAGAGGGGAGCACATTGATG (double strand) [katG promoter] | binds | – | – | – | 20 |
